Values from PubChem BioAssay AID1053208 (Peter MacCallum Cancer Centre, 2014).
Here is a random part of about 17,000 reagents. Of all reagents, 788 (4.7%) are marked active. 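Calls rest on z-score classes alone; an extra cut-off of viability at most 70% of control was not applied to them.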 Reagents against one gene are numbered here. Not all columns of the deposit are shown. No sequences are given here.

Aim: 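Find knock-downs that sensitise mouse osteosarcoma cells to doxorubicin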 (primary screen)
System: mouse osteosarcoma cells, early-passage culture from an engineered mouse model of fibroblastic bone tumour
Reagent: siRNA pool against mouse genes, 40 nM
Time to read-out: about 120 h (48 h before drug, then 72 h with drug)
Challenge: doxorubicin 100 nM for 72 h, roughly 30-40% inhibitory dose
Measurement: 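Viability read as ATP luminescence after 72 h of 100 nM doxorubicin or none, duplicate wells averaged, scaled to non-targeting siRNA, then expressed as robust z-scores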
Reading the numbers: viability z-score with doxorubicin: higher = more viable cells under doxorubicin; viability z-score without drug: higher = more viable cells with knock-down alone
Rule for the call: 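Called active if knock-down leaves viability unchanged without drug (z within -2 to 2) but lowers it with doxorubicin (z at or under -2)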

Dync1h1 (dynein cytoplasmic 1 heavy chain 1) → combined z-score class = no change with or without drug; viability z-score with doxorubicin = -0.45; viability z-score without drug = 0.17; Outcome = inactive
Scyl2 (SCY1-like 2 (S. cerevisiae)) → combined z-score class = no change with or without drug; viability z-score with doxorubicin = 0; viability z-score without drug = -0.51; Outcome = inactive
Ces2b (carboxyesterase 2B) → combined z-score class = no change with or without drug; viability z-score with doxorubicin = 0.22; viability z-score without drug = -0.17; Outcome = inactive
Fetub (fetuin beta) → combined z-score class = no change with or without drug; viability z-score with doxorubicin = -0.56; viability z-score without drug = -0.17; Outcome = inactive
Cyb5r4 (cytochrome b5 reductase 4) → combined z-score class = no change with or without drug; viability z-score with doxorubicin = 0.45; viability z-score without drug = -1.18; Outcome = inactive
Sh3tc1 (SH3 domain and tetratricopeptide repeats 1) → combined z-score class = no change with or without drug; viability z-score with doxorubicin = -1.24; viability z-score without drug = -0.17; Outcome = inactive
Galnt9 (polypeptide N-acetylgalactosaminyltransferase 9) → combined z-score class = no change with or without drug; viability z-score with doxorubicin = -1.01; viability z-score without drug = 0.51; Outcome = inactive
Rnf43 (ring finger protein 43) → combined z-score class = no change with or without drug; viability z-score with doxorubicin = -0.67; viability z-score without drug = -0.34; Outcome = inactive
Tnfrsf26 (tumor necrosis factor receptor superfamily, member 26) → combined z-score class = no change with or without drug; viability z-score with doxorubicin = -0.34; viability z-score without drug = -0.17; Outcome = inactive
Ugp2 (UDP-glucose pyrophosphorylase 2) → combined z-score class = no change with or without drug; viability z-score with doxorubicin = 0.34; viability z-score without drug = 0.51; Outcome = inactive
Dzip1l (DAZ interacting protein 1-like) → combined z-score class = no change with or without drug; viability z-score with doxorubicin = 1.35; viability z-score without drug = 1.18; Outcome = inactive
Sidt1 (SID1 transmembrane family, member 1) → combined z-score class = high cell count with doxorubicin only; viability z-score with doxorubicin = 2.02; viability z-score without drug = 0.84; Outcome = inactive
Dclk3 (doublecortin-like kinase 3) → combined z-score class = no change with or without drug; viability z-score with doxorubicin = -0.67; viability z-score without drug = -1.18; Outcome = inactive
Krtap14 (keratin associated protein 14) → combined z-score class = no change with or without drug; viability z-score with doxorubicin = -1.24; viability z-score without drug = -0.84; Outcome = inactive
B430108F07RIK → combined z-score class = no change with or without drug; viability z-score with doxorubicin = 0.22; viability z-score without drug = 1.18; Outcome = inactive
Kank3 (KN motif and ankyrin repeat domains 3) → combined z-score class = no change with or without drug; viability z-score with doxorubicin = 0.34; viability z-score without drug = 0.34; Outcome = inactive
Dnase1l3 (deoxyribonuclease 1-like 3) → combined z-score class = high cell count without drug only; viability z-score with doxorubicin = 0.79; viability z-score without drug = 2.19; Outcome = inactive
Ang2 (angiogenin, ribonuclease A family, member 2) → combined z-score class = low cell count with doxorubicin only; viability z-score with doxorubicin = -2.25; viability z-score without drug = -0.51; Outcome = active
Gadd45gip1 → combined z-score class = no change with or without drug; viability z-score with doxorubicin = 1.12; viability z-score without drug = -0.17; Outcome = inactive
Phf6 (PHD finger protein 6) → combined z-score class = no change with or without drug; viability z-score with doxorubicin = 0.9; viability z-score without drug = 1.18; Outcome = inactive
Zfp772 (zinc finger protein 772) → combined z-score class = no change with or without drug; viability z-score with doxorubicin = 0.11; viability z-score without drug = 0.84; Outcome = inactive
Kcnip1 (Kv channel-interacting protein 1) → combined z-score class = no change with or without drug; viability z-score with doxorubicin = -0.34; viability z-score without drug = -0.67; Outcome = inactive
Setd1a (SET domain containing 1A) #1 → combined z-score class = no change with or without drug; viability z-score with doxorubicin = 0.9; viability z-score without drug = 0.84; Outcome = inactive
Setd1a (SET domain containing 1A) #2 → combined z-score class = no change with or without drug; viability z-score with doxorubicin = 1.01; viability z-score without drug = 0.51; Outcome = inactive
Csmd1 (CUB and Sushi multiple domains 1) → combined z-score class = no change with or without drug; viability z-score with doxorubicin = -0.79; viability z-score without drug = -0.34; Outcome = inactive
Cenpn (centromere protein N) → combined z-score class = no change with or without drug; viability z-score with doxorubicin = -1.24; viability z-score without drug = -0.17; Outcome = inactive
Macir (macrophage immunometabolism regulator) → combined z-score class = no change with or without drug; viability z-score with doxorubicin = -0.9; viability z-score without drug = 0.51; Outcome = inactive
Catsper2 (cation channel, sperm associated 2) → combined z-score class = high cell count without drug only; viability z-score with doxorubicin = 0.56; viability z-score without drug = 2.36; Outcome = inactive
Cstf2t (cleavage stimulation factor, 3' pre-RNA subunit 2, tau) → combined z-score class = no change with or without drug; viability z-score with doxorubicin = -0.22; viability z-score without drug = 0.84; Outcome = inactive
Myt1l (myelin transcription factor 1-like) → combined z-score class = no change with or without drug; viability z-score with doxorubicin = 1.69; viability z-score without drug = 0.67; Outcome = inactive
Pum2 (pumilio RNA-binding family member 2) → combined z-score class = no change with or without drug; viability z-score with doxorubicin = 0.45; viability z-score without drug = 0.84; Outcome = inactive
Tfdp1 (transcription factor Dp 1) → combined z-score class = no change with or without drug; viability z-score with doxorubicin = -0.11; viability z-score without drug = 0.84; Outcome = inactive
Stx8 (syntaxin 8) → combined z-score class = no change with or without drug; viability z-score with doxorubicin = 1.01; viability z-score without drug = -0.17; Outcome = inactive
Hoxb9 (homeobox B9) → combined z-score class = no change with or without drug; viability z-score with doxorubicin = -0.45; viability z-score without drug = -0.17; Outcome = inactive
Troap (trophinin associated protein) → combined z-score class = no change with or without drug; viability z-score with doxorubicin = -0.45; viability z-score without drug = 0.51; Outcome = inactive
Cbx7 (chromobox 7) → combined z-score class = no change with or without drug; viability z-score with doxorubicin = 1.01; viability z-score without drug = -0.67; Outcome = inactive

Active calls (from the list above):
Ang2 (angiogenin, ribonuclease A family, member 2) → combined z-score class = low cell count with doxorubicin only; viability z-score with doxorubicin = -2.25; viability z-score without drug = -0.51; Outcome = active
